For at least one compound, name, drawing or mass did not settle the structure.
Test system: human mast cell strain HMC-1
Assay: Degranulation of mast cells induced by variation of oxygen concentration, β-hexosaminidase release
Type: cell-based
Settings: 75% O2 24 hours then 20% O2 12 hours, p<0.05
From the text: It has been known that human mast cell strain HMC-1 is a cell strain derived from leukemia, that it has a characteristic as a mast cell, and that it includes β-hexosaminidase in its granules. With reference to a previous report (European Journal of Immunology, Vol. 29, 2645-2649 (1999)), HMC-1 cells were suspended in an α-MEM culture medium to which 10% (v/v) fetal calf serum and a usual dose of antibiotic had been added for preparation of a mast cell suspension with a cell concentration of 5×10^5 cells/ml. Throughout the test period including the period in the high oxygen concentration environment, all the cells were subjected to an environment of 5% (v/v) CO2, 37° C. as the cultivation condition other than the oxygen concentration.
The mast cell suspension was dispensed on a 96-well plate at 4×10^5 cells/well. Cromolyn and each of the seven candidate substances were added to obtain the following concentrations. […]
pH 4.5 in 100 mM sodium citrate). […] The absorbance was measured at 414 nm. The (%) of the released marker substance (β-hexosaminidase) was calculated according to the following expression; OD(supernatant)/(OD(supernatant).+OD(pellet))×100.
The test was performed by three-sample test, an average and standard deviation were calculated on the basis of the measurement results for statistic analysis by ANOVA+ Tukey's test.

SMILES	degranulation (ratio of released β-hexosaminidase) compared with controls (media) (10 μM tranilast)	degranulation (ratio of released β-hexosaminidase) compared with controls (media) (1 μM ibudilast)
COc1ccc(/C=C/C(=O)Nc2ccccc2C(=O)O)cc1OC [tranilast]	inhibited the degranulation	
CC(C)C(=O)c1c(C(C)C)nn2ccccc12 [ibudilast]		inhibited the degranulation

Reference: US10330670B2, “Therapeutic or prophylactic agent for retinopathy of prematurity, testing method for retinopathy of prematurity, and screening method for therapeutic or prophylactic substance for retinopathy of prematurity” (TOKYO UNIVERSITY OF AGRICULTURE AND TECHNOLOGY, priority 2012, dated 2019)
